Experimental data: PubChem BioAssay AID1259282 (Sanger Institute, 2017)
The deposit covers 794 reagents; shown is a random part of them. 11 of them (1.4%) were called active. 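Calls flag knock-downs that lower viability without drug; drug synergy appears only in the synergy scores; exposure time not stated.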 Unmarked entries are inactive. Viability is capped at 1. No sequences are given here. Not given: the amount of reagent, the time to read-out.

Purpose: 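siRNA screen across the kinome seeking drug combinations lethal to colorectal cancer cells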 (primary screen)
Cells: DIFI human colorectal cancer cell line
Reagent: siRNA pool against human genes
Treatment: anchor drug at a mild dose (BYL719 1 µM, cetuximab 5 µg/ml, trametinib 10 nM) or DMSO vehicle; exposure time not given
Read-out: 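Robust z-score and replicate-mean viability versus non-targeting pool without drug, plus a synergy score for each low-dose anchor drug (BYL719, cetuximab, trametinib)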
Direction: robust z-score, knock-down alone: higher = more viable cells than typical knock-down; viability, knock-down alone: higher = more viable cells; synergy score with trametinib and synergy score with cetuximab and synergy score with BYL719: higher = stronger combined killing with drug
Active means: 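Essential when the robust z-score of the knock-down without drug falls below -3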
Meaning of the calls: active = essential (knock-down alone, z below -3); inactive = not essential

"robust z-score, knock-down alone","viability, knock-down alone (fraction of control)",synergy score with trametinib,synergy score with cetuximab,synergy score with BYL719,Target gene
0.715,1,-0.0545,0.0167,-0.19,"PIKFYVE (phosphoinositide kinase, FYVE-type zinc finger containing)"
0.715,1,-0.145,-0.0534,-0.346,STK3 (serine/threonine kinase 3)
0.715,1,0.186,-0.0284,-0.0578,STK16 (serine/threonine kinase 16)
-0.463,0.829,0.156,0.0652,0.0725,NTRK1 (neurotrophic receptor tyrosine kinase 1)
-0.288,0.854,-0.0198,-0.00943,-0.0995,SGK3 (serum/glucocorticoid regulated kinase family member 3)
0.408,0.955,0.164,0.148,-0.0425,MAP3K3 (mitogen-activated protein kinase kinase kinase 3)
0.715,1,-0.0423,-0.0692,-0.22,MKNK2 (MAPK interacting serine/threonine kinase 2)
-1.91,0.619,0.112,0.0519,0.0567,EPHA7 (EPH receptor A7)
0.715,1,0.126,-0.0172,-0.0904,STK4 (serine/threonine kinase 4)
0.715,1,-0.0321,-0.0778,-0.281,ITPKB (inositol-trisphosphate 3-kinase B)
-0.761,0.786,0.0635,0.0595,-0.0461,CDK20 (cyclin dependent kinase 20)
0.715,1,-0.267,-0.0872,-0.21,CDKN1A (cyclin dependent kinase inhibitor 1A)
-0.135,0.877,-0.0581,-0.03,0.0861,FLT4 (fms related receptor tyrosine kinase 4)
0.715,1,-0.111,-0.0456,-0.362,CKB (creatine kinase B)
-2.05,0.598,0.056,0.0864,-0.0542,CDKN2D (cyclin dependent kinase inhibitor 2D)
0.38,0.951,0.243,0.0828,-0.0289,GRK5 (G protein-coupled receptor kinase 5)
0.715,1,0.136,-0.135,-0.135,PRKD2 (protein kinase D2)
0.202,0.926,0.197,0.152,0.0509,"CKMT2 (creatine kinase, mitochondrial 2)"
0.715,1,0.157,-0.02,0.116,"ABL2 (ABL proto-oncogene 2, non-receptor tyrosine kinase)"
0.715,1,-0.087,0.0692,-0.362,BMPR1A (bone morphogenetic protein receptor type 1A)
0.715,1,0.105,0.0611,-0.0724,MATK (megakaryocyte-associated tyrosine kinase)
-0.597,0.809,-0.0903,-0.0988,-0.239,NEK8 (NIMA related kinase 8)
0.715,1,-0.0587,0.0295,-0.215,ACVR1B (activin A receptor type 1B)
0.715,1,-0.00331,-0.0427,-0.0698,RFK (riboflavin kinase)
-2.15,0.585,0.164,0.0782,-0.0607,PIK3C2A
0.245,0.932,-0.0402,-0.0308,0.0593,RSKR (ribosomal protein S6 kinase related)
0.715,1,0.0237,-0.0777,-0.121,SKAP1 (src kinase associated phosphoprotein 1)
-1.64,0.658,0.0158,-0.0078,-0.144,GRK7 (G protein-coupled receptor kinase 7)
-0.234,0.862,0.0526,-0.00429,0.0439,RPS6KC1 (ribosomal protein S6 kinase C1)

Continued (6 carried over from the part before).
"robust z-score, knock-down alone","viability, knock-down alone (fraction of control)",synergy score with trametinib,synergy score with cetuximab,synergy score with BYL719,Target gene
0.715,1,-0.00331,-0.0427,-0.0698,RFK (riboflavin kinase)
-2.15,0.585,0.164,0.0782,-0.0607,PIK3C2A
0.245,0.932,-0.0402,-0.0308,0.0593,RSKR (ribosomal protein S6 kinase related)
0.715,1,0.0237,-0.0777,-0.121,SKAP1 (src kinase associated phosphoprotein 1)
-1.64,0.658,0.0158,-0.0078,-0.144,GRK7 (G protein-coupled receptor kinase 7)
-0.234,0.862,0.0526,-0.00429,0.0439,RPS6KC1 (ribosomal protein S6 kinase C1)
0.715,1,0.201,-0.0128,-0.0517,LIMK2 (LIM domain kinase 2)
-3.1 (active),0.446,0.0989,0.0558,0.0488,MUSK (muscle associated receptor tyrosine kinase)
0.715,1,-0.0411,-0.0786,-0.199,SPHK2 (sphingosine kinase 2)
0.24,0.931,0.161,0.0506,0.101,EIF2AK1 (eukaryotic translation initiation factor 2 alpha kinase 1)
-2.94,0.47,-0.172,-0.0851,-0.0181,CHEK1 (checkpoint kinase 1)
0.715,1,0.129,0.113,-0.239,"PCK2 (phosphoenolpyruvate carboxykinase 2, mitochondrial)"
0.715,1,0.0263,-0.103,-0.179,MAP3K20 (mitogen-activated protein kinase kinase kinase 20)
-2.18,0.58,0.0704,0.00693,0.0811,SYNCRIP (synaptotagmin binding cytoplasmic RNA interacting protein)
-0.742,0.788,0.0678,0.0505,-0.154,PNKP (polynucleotide kinase 3'-phosphatase)
0.715,1,-0.0567,-0.0859,-0.118,PI4K2A (phosphatidylinositol 4-kinase type 2 alpha)
-1.31,0.706,0.0155,0.0491,-0.156,"PFKFB1 (6-phosphofructo-2-kinase/fructose-2,6-biphosphatase 1)"
-1.09,0.738,0.0892,-0.0962,-0.098,PRKAB1 (protein kinase AMP-activated non-catalytic subunit beta 1)
0.715,1,0.129,0.0611,-0.0861,MAP2K4 (mitogen-activated protein kinase kinase 4)
-0.732,0.79,-0.103,-0.0584,-0.239,DLG1 (discs large MAGUK scaffold protein 1)
0.715,1,-0.146,-0.0664,-0.173,CDK8 (cyclin dependent kinase 8)
0.715,1,0.0866,0.0821,-0.306,CSNK2B (casein kinase 2 beta)
0.715,1,0.0451,0.0305,-0.11,MAPK14 (mitogen-activated protein kinase 14)
0.715,1,-0.217,-0.0687,-0.253,SOS2 (SOS Ras/Rho guanine nucleotide exchange factor 2)
0.715,1,0.0529,0.0653,-0.192,VRK1 (VRK serine/threonine kinase 1)
0.434,0.959,-0.0522,-0.0829,-0.103,ELP1 (elongator acetyltransferase complex subunit 1)
0.715,1,0.0028,0.0134,-0.179,MAP3K5 (mitogen-activated protein kinase kinase kinase 5)
